For 13 compounds, odorant receptor activation results are on record in the odorant receptor screen of Mainland et al. (2015).

Assay in all cases: odorant receptor activation (CRE luciferase / Renilla) (fold of no-odor wells); higher = more activation
Settings in all cases: 100 µM

Experiment [1] concerns OR4K13 clone 1266.
The test system of experiment [2] is OR4K14 clone 1276.
For experiment [3], the system named is OR4K15 N65S/E88V/S93A/A231E/L280P/I286M clone 1566.
Experiment [4] concerns OR4K17 clone 1319.
The test system of experiment [5] is OR4K17 clone 1420.
The test system of experiment [6] is OR4K2 clone 1258.
For experiment [7], the system named is OR4K3 clone 1259.
Experiment [8] concerns OR4K5 clone 1261.
The test system of experiment [9] is OR4L1 R52S clone 1265.
The test system of experiment [10] is OR4M1 clone 1559.
In experiment [11] the test system is OR4M2 clone 1278.
Experiment [12] relates to OR4N2 clone 1270.
The test system of experiment [13] is OR4N4 clone 1277.
Experiment [14] concerns OR4N5 clone 1262.
Experiment [15] relates to OR4P4 R231C clone 1398.
Experiment [16] has as its system OR4P4 clone 1139.
For experiment [17], the system named is OR4Q3 clone 1411.
The subject of experiment [18] is OR4S1 clone 1283.
The subject of experiment [19] is OR4S2 clone 1175.
Experiment [20] concerns OR4X2 clone 1193.

Values joined by “and” are separate entries in the source; they are usually repeats but may differ in a detail not shown here. Equal entries are not always repeated. Some of the results follow. Single wells; the ratio to wells without odorant was worked out here, and repeats agree poorly.

As to `CCCCCOC(C)=O` [n-amyl acetate], the odorant receptor activation stood at 0.685 in experiment [1]; 0.572 in [2]; 1.06 in experiment [3]; 0.676 in [4]; 0.769 in experiment [5]; 0.34 in experiment [6]. The odorant receptor activation in [7] turned out to be 0.452; in experiment [8] it was 0.335; in experiment [9] it was 1.16; in experiment [10] it was 0.791; in experiment [11], 0.262; in experiment [12] it was 0.653. The odorant receptor activation in experiment [13] worked out at 0.316; in experiment [14] it was 0.62; in experiment [15] it was 0.642; in experiment [16], 0.534; in [17] it was 1.09; in experiment [18], 0.328. The odorant receptor activation in [19] was 0.817; in [20], 0.869.
As to `C=C(C)C1CC=C(C)C(=O)C1` (stereo not given) [r-carvone], the odorant receptor activation is 0.686 in [1]; 0.668 in experiment [2]; 0.861 in experiment [3]; 0.772 in [4]; 1.24 in experiment [5]; 0.868 in [6]. The odorant receptor activation in [7] turned out to be 0.799; in [8], 0.546; in [9] it was 0.984; in [10] it was 0.776; in experiment [11], 1.08; in [12], 0.964. In addition, the odorant receptor activation in [13] is 0.825; in experiment [14] it was 0.762; in [15], 0.836; in experiment [16] it was 0.935; in [17], 1.21; in experiment [18] it was 0.772. Moreover, the results for the odorant receptor activation in [19] and in experiment [20] were 1.01 and 0.944, respectively.
Turning to `CC(C)CCC(=O)O` [4-methylvaleric acid], the odorant receptor activation in experiment [1] was 1.12; in [2] it was 0.84; in [3] it was 0.864; in [4], 1.2; in experiment [5] it was 0.826; in experiment [6] it was 1.17. The odorant receptor activation amounted to 0.971 in experiment [7]; 1.72 in experiment [8]; 1.36 in experiment [9]; 1.17 in experiment [10]; 1.21 in experiment [11]; 1.04 in experiment [12]. In addition, the odorant receptor activation in experiment [13] came out at 0.953; in experiment [14], 1.09; in experiment [15] it was 1.18; in experiment [16], 0.72; in [17], 0.873; in experiment [18] it was 1.6. The odorant receptor activation worked out at 1.15 in [19] and 1.53 in [20].
With `CC1CCC(C(C)C)C(O)C1` (single isomer, unassigned; (-)) [(-)-menthol], the odorant receptor activation in experiment [1] is 0.576; in [2] it was 0.6; in experiment [3], 1.12; in experiment [4], 0.854; in experiment [5], 1.02; in experiment [6], 0.914. The odorant receptor activation was found to be 0.438 in experiment [7]; 0.743 in experiment [8]; 0.722 in [9]; 1.35 in [10]; 0.838 in experiment [11]; 0.608 in experiment [12]. Also, the odorant receptor activation stood at 0.87 in experiment [13]; 0.691 in experiment [14]; 0.959 in [15]; 1.26 in experiment [16]; 0.765 in experiment [17]; 0.677 in [18]. Moreover, the odorant receptor activation in experiment [19] stood at 1.12; in experiment [20], 1.51.
On to `C=CCc1ccc(OC(C)=O)c(OC)c1` [eugenol acetate], for which the odorant receptor activation worked out at 2.02 in experiment [1]; 1.74 in experiment [2]; 2.41 in [3]; 1.73 in [4]; 1.54 in [5]; 1.97 in [6]. Besides, the odorant receptor activation in [7] is 1.54; in [8] it was 1.5; in experiment [9], 1.32; in experiment [10] it was 2.13; in [11] it was 1.89; in experiment [12] it was 1.98. In addition, the odorant receptor activation in experiment [13] was found to be 1.57; in [14], 2.14; in experiment [15], 1.84; in experiment [16] it was 2.42; in experiment [17], 2.03; in experiment [18], 1.77. Besides, the odorant receptor activation in experiment [19] came out at 1.59; in experiment [20] it was 1.62.
On to `O=CCc1ccccc1` [phenyl acetaldehyde], for which the odorant receptor activation in experiment [1] amounted to 1.14; in experiment [2], 1.39; in experiment [3], 3.59; in experiment [4], 1.13; in experiment [5] it was 1.45; in [6], 1.35. Moreover, the odorant receptor activation turned out to be 1.32 in experiment [7]; 1.11 in experiment [8]; 1.42 in experiment [9]; 1.45 in [10]; 1.49 in experiment [11]; 1.4 in experiment [12]. For the same compound, the odorant receptor activation was 1.48 in experiment [13]; 1.11 in experiment [14]; 1.27 in [15]; 0.987 in experiment [16]; 1.52 in experiment [17]; 1.06 in [18]. Moreover, the odorant receptor activation in experiment [19] is 1.2; in experiment [20], 0.936.
Consider `c1ccc(Oc2ccccc2)cc1` [diphenyl ether], for which the odorant receptor activation in experiment [1] amounted to 1.22; in experiment [2] it was 1.06; in [3], 0.807; in experiment [4], 0.93; in experiment [5] it was 0.961; in experiment [6] it was 0.981. Further, the odorant receptor activation is 0.982 in experiment [7]; 0.924 in [8]; 1.02 in experiment [9]; 0.823 in experiment [10]; 1.1 in [11]; 1.16 in experiment [12]. Also, the odorant receptor activation in experiment [13] came out at 0.951; in experiment [14], 1.43; in experiment [15], 0.828; in experiment [16] it was 1.03; in experiment [17] it was 1.12; in experiment [18] it was 1.12. For the same compound, the odorant receptor activation in [19] came out at 0.871; in experiment [20], 1.12.
Consider `CC(C)C=O` [isobutyraldehyde], for which the odorant receptor activation in [1] is 1.17 and 1.05; in experiment [2], 1.6 and 0.995; in experiment [3], 0.686; in experiment [4] it was 0.89 and 0.726; in [5], 0.916; in [6] it was 0.856 and 0.971. The odorant receptor activation was 1.17 and 0.818 in experiment [7]; 1.06 in [8]; 0.912 and 1.04 in experiment [9]; 1.06 in experiment [10]; 0.792 and 0.766 in [11]; 0.919 and 1.31 in [12]. In addition, the odorant receptor activation is 1.13 and 0.717 in [13]; 1.17 and 0.752 in experiment [14]; 0.713 in [15]; 0.743 in experiment [16]; 0.876 in experiment [17]; 1.17 and 0.922 in experiment [18]. Also, the odorant receptor activation in experiment [19] came to 0.832; in [20], 0.868.
For the compound `CCCCCCCCOC(C)=O` [octyl acetate], the odorant receptor activation was determined as 1.21 in [1]; 1.35 in [2]; 0.819 in [3]; 1.45 in experiment [4]; 0.925 in experiment [5]; 0.945 in experiment [6]. In addition, the odorant receptor activation was 0.931 in experiment [7]; 1.07 in experiment [8]; 1.32 in experiment [9]; 0.878 in experiment [10]; 1.01 in experiment [11]; 0.831 in [12]. In addition, the odorant receptor activation stood at 1.01 in experiment [13]; 1.17 in experiment [14]; 0.927 in experiment [15]; 0.963 in experiment [16]; 0.684 in [17]; 1.11 in [18]. Further, the odorant receptor activation in [19] worked out at 0.877; in experiment [20], 1.37.
For `CCCC(=O)O` [butyric acid], the odorant receptor activation in experiment [1] is 0.941; in [2] it was 0.884; in experiment [3], 0.786; in experiment [4] it was 0.792; in experiment [5], 0.213; in experiment [6], 1.02. Also, the odorant receptor activation came to 1.09 in [7]; 1.31 in [8]; 0.843 in experiment [9]; 1.51 in experiment [10]; 1.02 in [11]; 0.92 in experiment [12]. Also, the odorant receptor activation in experiment [13] stood at 1.08; in experiment [14] it was 0.955; in experiment [15], 0.276; in [16], 1.35; in experiment [17] it was 0.276; in [18], 0.736. Besides, the figures for the odorant receptor activation in [19] and in experiment [20] were 0.962 and 1.07, respectively.
Turning to `CCCCO` [1-butanol], the odorant receptor activation in experiment [1] is 1.05; in experiment [2] it was 0.767; in [3] it was 1.13; in experiment [4], 1.11; in experiment [5], 1.03; in [6] it was 1.19. The odorant receptor activation was 0.904 in experiment [7]; 1.47 in experiment [8]; 1.31 in experiment [9]; 1.2 in experiment [10]; 1.41 in experiment [11]; 0.897 in experiment [12]. The odorant receptor activation in experiment [13] was 1.18; in experiment [14], 0.898; in [15] it was 1.1; in experiment [16] it was 1.04; in experiment [17], 0.788; in experiment [18], 1.14. The results for the odorant receptor activation in experiment [19] and in experiment [20] were 1.01 and 1.39, respectively.
Turning to `CCCCCCCC=CC=O` [2-decenal], the odorant receptor activation was 1.69 in experiment [1]; 1.11 in experiment [2]; 0.895 in [3]; 1.03 in [4]; 1.13 in [5]; 1.82 in experiment [6]. The odorant receptor activation in experiment [7] is 0.953; in experiment [8], 2.16; in [9] it was 1.75; in experiment [10], 1.07; in [11] it was 2.21; in experiment [12], 1.36. The odorant receptor activation in experiment [13] amounted to 1.89; in [14], 1.06; in [15], 1.1; in experiment [16], 0.986; in experiment [17] it was 0.68; in experiment [18] it was 1.17. The odorant receptor activation in experiment [19] is 1.2; in experiment [20] it was 1.39.
Consider `CC(=O)OC1CC2CCC1(C)C2(C)C` (stereo not given) [isobornyl acetate], for which the odorant receptor activation was 1.22 and 1.07 in [1]; 1.35 and 0.855 in experiment [2]; 0.628 in [3]; 0.95 and 0.734 in experiment [4]; 0.958 in [5]; 0.827 and 1.21 in [6]. In addition, the odorant receptor activation in [7] was 1.2 and 0.914; in experiment [8] it was 0.889 and 1.03; in experiment [9], 0.955 and 1.09; in [10], 1.05; in [11] it was 1.03 and 0.921; in experiment [12], 1.06 and 1.02. Moreover, the odorant receptor activation was 1.12 and 0.838 in experiment [13]; 1.3 and 1.05 in [14]; 0.669 in experiment [15]; 0.673 in [16]; 0.871 in experiment [17]; 1.32 and 1.27 in experiment [18]. Moreover, the odorant receptor activation in experiment [19] amounted to 1.08; in experiment [20] it was 0.796.
